{"source": "patent US20150216955A1", "about": "“IMMUNOMODULATORY AGENT AND USES THEREFOR” (The University of Queensland, priority 2012, published 2015)", "key": {"[1]": {"tested_on": "CD4+ T cells", "conditions": "literature: von Delwig et al. 2010; Snir et al. 2011; cited from earlier work"}, "[2]": {"tested_on": "PBMC", "assay": "Cytokine secretion in day 5 supernatants by Cytometric Bead Array (CBA) after peptide stimulation", "type": "cell-based, human"}, "[3]": {"tested_on": "CD4+ T cells", "assay": "Flow cytometry and intracellular cytokine staining after peptide stimulation", "type": "cell-based, human", "protocol": "FIG. 6 is a graphical representation showing cytokine secretion by CD4^+ T cell subsets. PBMC from HLA-DR SE^+ RA patients and healthy controls were incubated with 0 or 30 μg/ml citrullinated fibrinogen or citrullinated aggrecan, stained with mAb directed against CD4, CD28, IFN-γ and IL-6 (A), or CD4, CD45RO, IL-6 and IFN-γ (E) then analyzed by flow cytometry. B: The gating strategy is outlined. C: Fluorescence minus one (FMO) plot showing background staining for intracellular cytokine staining, gated on CD4^+ T cells. D: IL-6 staining of gated CD4^− non-T cells. The proportions in (E) of IL-6^+CD4^+CD45RO^+ T cells were 2.2%, 5.3% and 7.1%, and of IL-6^+CD4^+CD45RO^− T cells were 0.8%, 2.1% and 4% in response to incubation with no peptide, citrullinated fibrinogen and citrullinated aggrecan respectively. Two individual RA patients and 1 healthy control are shown. Data are representative of 2 healthy donors and 5 RA patients.\nIL-6 is an important cytokine in RA, which could be produced upon stimulation of PBMC either by T cells or antigen presenting cells. To determine the origin of the cytokines secreted into supernatants of PBMC stimulated by citrullinated peptides, RA PBMC were incubated with citrullinated or native peptides for 5 days, with addition of Brefeldin-A for the last 18 hours, prior to intracellular cytokine staining along with analysis of cell surface markers. CD3^+CD4^+ T cells produced more intra-cellular IFN-γ and IL-6 when incubated with citrullinated aggrecan or fibrinogen relative to incubation in medium alone (FIG. 6A, B). […] In healthy controls, CD28^− cells comprised only a small proportion of the CD4^+ T cells, and cytokine-secreting cells were exclusively CD4^+CD28^+. CD28^− cells were more abundant among CD4^+ PB T cells in some, but not all, RA patients. Where CD4^+CD28^− T cells were present, IL-6 and IFN-γ were secreted by both CD28^− and CD28^+CD4^+ T cells in response to citrullinated peptides. […] IFN-γ^+CD4^+ and IL-6^+CD4^+ T cells included both CD45RO^+ and CD45RO^− cells (FIG. 6E).\nPBMC from SE^+ RA patients or healthy controls were incubated with or without peptides at concentrations of 3 and 30 μg/mL for 5 days, with Brefeldin A (Sigma Aldrich) added for the final 18 hours. Cells were stained for CD3-FITC, CD4-APC/Cy7, CD28-FITC, CXCR5-PerCP/Cy5.5 and CD45RO-PerCP/Cy5.5 (Biolegend), followed by permeabilization and staining for intracellular IL-6-APC and IFN-γ-APC (Biolegend). Data were collected on the Gallios flow cytometer and analysed using Kaluza software (Beckman Coulter)."}, "[4]": {"conditions": "RA PBMC, 5 days, Brefeldin-A last 18 hours"}}, "note": "At least one peptide structure holds a part that was inferred or is arguable (an end, a ring closure or a residue). Where a SMILES comes first, the peptide text is derived from it."}
{"smiles": "CC(C)C[C@H](NC(=O)[C@H](CC(C)C)NC(=O)[C@@H](NC(=O)[C@@H](N)C(C)C)C(C)C)C(=O)N[C@H](C(=O)N[C@@H](C)C(=O)N[C@H](C(=O)N[C@@H](CCC(=O)O)C(=O)NCC(=O)N[C@@H](CCCNC(N)=O)C(=O)N[C@H](C(=O)N[C@@H](CCCNC(=N)N)C(=O)N[C@H](C(=O)N[C@@H](CC(N)=O)C(=O)N[C@@H](CO)C(=O)N[C@@H](C)C(=O)N[C@@H](Cc1ccc(O)cc1)C(=O)N[C@@H](CCC(N)=O)C(=O)N[C@@H](CC(=O)O)C(=O)N[C@@H](CCCCN)C(=O)O)C(C)C)C(C)C)[C@@H](C)O)C(C)C", "note": "[citrullinated aggrecan, VVLLVATEGCitVRVNSAYQDK] (HELM PEPTIDE1{V.V.L.L.V.A.T.E.G.[Cit].V.R.V.N.S.A.Y.Q.D.K}$$$$V2.0; N-terminus and C-terminus assumed)", "values": [{"measurement": "CD4+ T cell proliferative and cytokine responses in previous studies", "setting": "[1]", "value": "demonstrated in RA patients but not in healthy controls"}, {"measurement": "net IL-6 production", "setting": "[2]; 30 μg/mL peptide, 5 days, peptide minus no peptide", "value": "up to 60 ng/mL"}, {"measurement": "healthy controls whose PBMC dose-dependently secreted IL-6", "setting": "[2]; 6 SE+ healthy controls", "value": "4/6"}, {"measurement": "IL-6 secretion, citrullinated compared with native peptide", "setting": "[2]; RA patients PBMC, 5 days", "value": "significantly greater amounts"}, {"measurement": "IL-10 secretion, citrullinated compared with native peptide", "setting": "[2]; RA patients PBMC, 5 days", "value": "significantly greater amounts"}, {"measurement": "TNF secretion, citrullinated compared with native peptide", "setting": "[2]; RA patients PBMC, 5 days", "value": "significantly greater amounts"}, {"measurement": "number of RA patients with positive IL-6 response to this epitope only", "setting": "[2]; of 17 RA patients, threshold mean + 2 SD above native peptide response", "value": 8}, {"measurement": "IL-10 secretion, RA patients compared with healthy controls", "setting": "[2]; p<0.05", "value": "significantly more"}, {"measurement": "TNF secretion, RA patients compared with healthy controls", "setting": "[2]; p<0.05", "value": "significantly more"}, {"measurement": "proportion of IL-6+CD4+CD45RO- T cells", "setting": "[3]; 30 μg/ml peptide, no peptide 0.8%", "value": 4, "unit": "%"}, {"measurement": "proportion of IL-6+CD4+CD45RO+ T cells", "setting": "[3]; 30 μg/ml peptide, no peptide 2.2%", "value": 7.1, "unit": "%"}, {"measurement": "intra-cellular IFN-γ in CD3+CD4+ T cells relative to medium alone", "setting": "[3]; [4]", "value": "more"}, {"measurement": "intra-cellular IL-6 in CD3+CD4+ T cells relative to medium alone", "setting": "[3]; [4]", "value": "more"}]}
